From patent publication US20250034268A1
Results are given in words; binding and its absence hold for the method and conditions named. Some entries that bind do so weakly or less than the wild type.

Chains of the proteins cited; added tags and fusions are not shown. Residues count along the entry.
UniProt Q02223, residues 1-54: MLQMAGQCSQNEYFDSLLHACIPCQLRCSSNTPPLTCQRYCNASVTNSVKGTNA
UniProt O88472, residues 1-49: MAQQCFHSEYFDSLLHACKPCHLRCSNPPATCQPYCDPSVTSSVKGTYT

Tests used:
[1] = molecular target: recombinant human BCMA protein (human) (UniProt Q02223); test: SPR (Biacore T200)
[2] = molecular target: recombinant cynomolgus monkey BCMA protein (cynomolgus monkey); test: SPR (Biacore T200)
[3] = molecular target: recombinant mouse BCMA protein (mouse) (UniProt O88472); test: SPR (Biacore T200)
[4] = molecular target: recombinant human BCMA protein (human) (UniProt Q02223); test: SPR (Biacore T200), antibody captured by anti-human Fc IgG on a CM5 chip, BCMA in the mobile phase; concentrations are not printed on the sheet
[5] = molecular target: recombinant cynomolgus monkey BCMA protein (cynomolgus monkey); test: as above
[6] = molecular target: recombinant mouse BCMA protein (mouse) (UniProt O88472); test: as above
[7] = molecular target: cynomolgus monkey BCMA expressed on CHO GS cells (cynomolgus monkey); test: flow cytometry on cynoBCMA-CHO GS cells
[8] = molecular target: cynomolgus monkey BCMA expressed on CHO GS cells (cynomolgus monkey); test: flow cytometry titration on cynoBCMA-CHO GS cells, APC goat anti-human IgG secondary antibody

Measured: binding

B1: ADI-38497 PG antibody (antibody, V domains shown)
VH: QLQLQESGPGLVKPSETLSLTCTVSGGSIVSSSYYWTWIRQPPGKGLEWIGSISIAGSTYYNPSLKSRVTISVDTSKNQFSLKLSSVTAADTAVYYCARDRGDQILDVWSQGTMVTVSS
VL: DIQMTQSPSSLSASVGDRVTITCRASQSISRYLNWYQQKPGKAPKLLIYAASSLQSGVPSRFSGSGSGTDFTLTISSLQPEDFATYYCQQKYFDITFGGGTKVEIKR
binds: [1] | [2] | [3] | [4] | [5] | [6] | [7] | [8]
